Measurements taken from patent US20160346305A1, “SWEETENER COMPOSITION FOR PREVENTING AND IMPROVING OBESITY, CONTAINING GLYCOLYSIS INHIBITOR INGREDIENT” (CJ CHEILJEDANG CORPORATION, priority 2011, published 2016).

How the values were obtained:
[1] = known from background; cited from earlier work
[2] = Relative sweetness compared with sugar; settings: sugar = 1

For `O=C[C@H](O)[C@@H](O)[C@H](O)CO` [Xylose], which “Sweetness relative to sugar (sucrose)” value [1] is on record?
The value was “about 40%”.

For `O=C(CO)[C@@H](O)[C@@H](O)[C@H](O)CO` [Tagatose], which “Sweetness relative to sugar (sucrose)” value [1] is on record?
The value was “about 90%”.

And the “Relative Sweetness per g of raw material” value [2]?
The value was 0.92.

With Sugar [reference compound] as the compound, how does the “Relative Sweetness per g of raw material” value [2] read?
The value was 1.
